The target in the test is T1, Bud20-TAP (S. cerevisiae) (UniProt Q08004).
T1 sequence: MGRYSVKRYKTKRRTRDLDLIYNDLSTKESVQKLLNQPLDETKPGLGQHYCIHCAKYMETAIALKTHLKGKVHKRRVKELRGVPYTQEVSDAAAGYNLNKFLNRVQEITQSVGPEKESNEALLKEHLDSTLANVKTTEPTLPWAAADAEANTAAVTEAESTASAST
Description: co-IP; affinity purification of pre-60S particles via Bud20-TAP from S. cerevisiae crm1^T539C (untreated, LmB and/or diazaborine; ARX1 or Δarx1 background), SDS-PAGE and western blotting. For orientation: Immunoblotting shows a protein as a band on a membrane.

These are yes or no findings as the source states them, for the method shown. Binding seen in cells or lysates may run through a third protein. Some results given as binding are weak or reduced against the parent protein; the word gives no strength.

B1: Nog1 on the pre-60S particle (protein, UniProt Q02892 1-647)
chain: MQLSWKDIPTVAPANDLLDIVLNRTQRKTPTVIRPGFKITRIRAFYMRKVKYTGEGFVEKFEDILKGFPNINDVHPFHRDLMDTLYEKNHYKISLAAISRAKSLVEQVARDYVRLLKFGQSLFQCKQLKRAALGRMATIVKKLRDPLAYLEQVRQHIGRLPSIDPNTRTLLICGYPNVGKSSFLRCITKSDVDVQPYAFTTKSLYVGHFDYKYLRFQAIDTPGILDRPTEEMNNIEMQSIYAIAHLRSCVLYFMDLSEQCGFTIEAQVKLFHSIKPLFANKSVMVVINKTDIIRPEDLDEERAQLLESVKEVPGVEIMTSSCQLEENVMEVRNKACEKLLASRIENKLKSQSRINNVLNKIHVAQPQARDDVKRTPFIPESVKNLKKYDPEDPNRRKLARDIEAENGGAGVFNVNLKDKYLLEDDEWKNDIMPEILDGKNVYDFLDPEIAAKLQALEEEEEKLENEGFYNSDDEEEIYDGFEASEVDDIKEKAAWIRNRQKTMIAEARNRKSLKNKAIMPRSKLTKSFGKMEEHMSTLGHDMSALQDKQNRAARKNRYVERGSDVVFGDQDALTASTENGVKLRQTDRLLDGVADGSMRSKADRMAKMERRERNRHAKQGESDRHNAVSLSKHLFSGKRGVGKTDFR
As to B1, the binding entry is listed as “binds”.

B2: Mrt4 on the pre-60S particle (protein, UniProt P33201 1-236)
chain: MPRSKRSKLVTLAQTDKKGRENKERIFDEVREALDTYRYVWVLHLDDVRTPVLQEIRTSWAGSKLIMGKRKVLQKALGEKREEEYKENLYQLSKLCSGVTGLLFTDEDVNTVKEYFKSYVRSDYSRPNTKAPLTFTIPEGIVYSRGGQIPAEEDVPMIHSLEPTMRNKFEIPTKIKAGKITIDSPYLVCTEGEKLDVRQALILKQFGIAASEFKVKVSAYYDNDSSTVESTNINME
Take B2: the binding entry is listed as “binds”.

B3: Nmd3 on the pre-60S particle (protein, UniProt P38861 1-518)
chain: MEFTPIDPHQHQNAATLLCCNCGTPIDGSTGLVMCYDCIKLTVDITQGIPREANISFCRNCERFLQPPGQWIRAELESRELLAICLRRLKGLTKVRLVDASFIWTEPHSRRIRIKLTVQGEAMTNTIIQQTFEVEYIVIAMQCPDCARSYTTNTWRATVQIRQKVPHKRTFLFLEQLILKHNAHVDTISISEAKDGLDFFYAQKNHAVKMIDFLNAVVPIKHKKSEELISQDTHTGASTYKFSYSVEIVPICKDDLVVLPKKLAKSMGNISQFVLCSKISNTVQFMDPTTLQTADLSPSVYWRAPFNALADVTQLVEFIVLDVDSTGISRGNRVLADITVARTSDLGVNDQVYYVRSHLGGICHAGDSVMGYFIANSNYNSDLFDGLNIDYVPDVVLVKKLYQRKSKKSRHWKLKRMAKEHKDIDASLDYNSRAQKQEMERAEKDYELFLQELEEDAELRQSVNLYKNREANVPPEEHEMDEDEDEDAPQINIDELLDELDEMTLEDGVENTPVESQQ
For B3, the binding entry is given as “binds”.
